# Reference: PubChem BioAssay AID540256 (National Center for Advancing Translational Sciences (NCATS), 2011)
# Hit rate of the full screen: of about 300,000 compounds, about 3,700 (1.2%) were called active. Inconclusive means that the source gave no clear call. Such entries were picked first, then a sample of the others. Calls follow the shape of the full dose curve; tested in HEK293 cells. Potencies of inconclusive entries are doubtful fits and often do not repeat.
# Experiment: qHTS for Inhibitors of binding or entry into cells for Lassa Virus; also: nearly all actives have a fitted effect of over 50% in size
# Conditions: Lassa virus pseudotype entry inhibition, cell reporter; series mostly up to 37.9 µM
# Potency is read from the fitted curve at half-maximal effect.
row,SMILES,Potency
1,NC(=O)NC(=O)C[n+]1cccc(/C=N/O)c1,inactive
2,Cc1nc(C(=O)NNC(=O)c2c(-c3c(Cl)cccc3Cl)noc2C)cs1,"inconclusive: 5.01 µM [inhibitor, partial curve, poor fit]"
3,Cc1cc(C)n(-c2nc3cc(Cl)ccc3nc2N2CCN(c3cccc(C)c3C)CC2)n1,inactive
4,COc1ccc(/C=C/c2c([N+](=O)[O-])c(=O)n(C)c(=O)n2C)c(OC)c1OC,"inconclusive: 8.91 µM [inhibitor, partial curve, poor fit]"
5,COc1cc(C2c3cc4c(cc3OC(NNC(N)=O)C2C)OCO4)cc(OC)c1OC (centres undefined),"inconclusive: 0.501 µM [inhibitor, full curve, poor fit]"
6,O=C(NN1c2ccccc2CCc2ccccc21)c1ccccc1Br,inactive
7,COc1ccccc1CCNC(=O)c1cc(C2CC2)nc2c1cnn2C(C)C,"inconclusive: 35.5 µM [inhibitor, single point]"
8,Cc1cccc(C)c1NC(=O)COC(=O)c1ccc([N+](=O)[O-])o1,"inconclusive: 35.5 µM [inhibitor, single point]"
9,O=C(Cc1ccc2c(c1)CCCC2)Nc1ccccc1Cl,"inconclusive: 4.11 µM [inhibitor, partial curve, poor fit]"
10,CCOC(=O)C1CCCN(C(c2ccccn2)c2c(C)[nH]c3ccccc23)C1 (centres undefined),inactive
11,COc1cc(C(C[N+](=O)[O-])c2c(-c3ccccc3)cc3ccccn23)cc(OC)c1OC (centres undefined),inactive
12,COc1ccc(C(=O)c2ccc(Cl)c([N+](=O)[O-])c2)cc1,"inconclusive: 5.17 µM [inhibitor, full curve]"
13,COc1ccc(C(=O)Nc2ccc(C(=O)Nc3cccc(C)c3)cc2)cc1,"inconclusive: 11.2 µM [inhibitor, partial curve, poor fit]"
14,O=C(Cc1ccc(Cl)cc1)NC1CCCCCC1,"inconclusive: 3.16 µM [activator, partial curve, poor fit]"
15,O=C1CC(=Nc2ccccc2)NN1c1ccccc1,inactive
16,Cc1ccc(S(=O)(=O)NC(=O)Nc2ccc(N(C)C)cc2)cc1,active: 12.6 µM
17,Cc1ccc(S(=O)(=O)N(C)C)cc1NC(=O)c1cc(-c2ccco2)nc2ccccc12,"inconclusive: 25.1 µM [inhibitor, partial curve, poor fit]"
18,Cc1ccc(S(=O)(=O)c2cn(C)c3cc(N4CCOCC4)c(F)cc3c2=O)c(C)c1,inactive
19,Oc1c(C(c2ccc(F)cc2)N2CCCC2)sc2nc(-c3ccco3)nn12 (centres undefined),"inconclusive: 5.01 µM [activator, full curve, poor fit]"
20,O=C(CSCc1ccccc1)N/N=C/c1ccc(OCC(=O)N2CCCCC2)cc1,inactive
21,CC1CC1C(=O)OCC(=O)NCc1ccccc1Cl (centres undefined),"inconclusive: 5.62 µM [activator, single point]"
22,COc1ccc(OCCNC(=O)c2ccccc2OCC(=O)N2CCCCC2)cc1,inactive
23,CCc1ccc(C(=O)COC(=O)C(CCSC)NC(=O)c2ccccc2)cc1 (centres undefined),inactive
24,Clc1ccccc1-c1nc(-c2ccncc2)no1,inactive
25,C(=N\Nc1nc(-c2cccnc2)nc2ccccc12)/c1ccccc1,inactive

row,SMILES,Potency
1,CCC(=O)Nc1ccc(C2C(=O)c3ccccc3C2=O)cc1,"inconclusive: 12.6 µM [inhibitor, partial curve]"
2,COc1ccc(OC)c(CN2CCN(C(=O)c3cccs3)CC2)c1,inactive
3,COc1ccc(NC(=O)N2CCC(CN3CCCC3)CC2)c(OC)c1,"inconclusive: 14.1 µM [activator, single point]"
4,COc1cccc(-c2cc(C(=O)Nc3c(C)n(C)n(-c4ccccc4)c3=O)no2)c1,inactive
5,Clc1ccc(-c2ccc(CNCCSc3nnnn3-c3ccccc3)o2)cc1,inactive
6,CCCCN(C)C(=O)C1CCN(c2ccc(S(=O)(=O)N3CCOCC3)cc2[N+](=O)[O-])CC1,inactive
7,COc1cccc(OC)c1OCCCOc1cccc2cccnc12,"inconclusive: 3.16 µM [inhibitor, single point]"
8,O=C(Nc1nc(-c2ccc([N+](=O)[O-])cc2)cs1)c1c(F)cccc1F,"inconclusive: 0.73 µM [inhibitor, full curve, poor fit]"
9,CCNC(=O)c1cccc(NC(=O)c2cc(C3CC3)nc3c2cnn3C(C)C)c1,"inconclusive: 35.5 µM [inhibitor, single point]"
10,CSc1ccccc1C(=O)Nc1cccc(N(C)S(C)(=O)=O)c1,"inconclusive: 8.2 µM [inhibitor, partial curve, poor fit]"
11,O=C(CSc1ccc2nnc(-c3ccc(F)cc3)n2n1)N1CCCc2ccccc21,"inconclusive: 8.91 µM [inhibitor, partial curve]"
12,COC(=O)c1sc(S(=O)(=O)NCC(=O)O)c(C(=O)OC)c1C,"inconclusive: 35.5 µM [activator, single point]"
13,CCCCCN1C(C(=O)c2ccccc2)=C(NC(=O)c2ccc(OC)c(OC)c2)c2ccccc2S1(=O)=O,inactive
14,COc1cccc(NC(=O)Cn2cnc3sc(C)c(S(=O)(=O)N4CCCCC4)c3c2=O)c1,"inconclusive: 6.51 µM [activator, single point]"
15,COc1ccc(Cl)cc1S(=O)(=O)N1CCN(Cc2ccc3c(c2)OCO3)CC1,inactive
16,N#Cc1nc(-c2ccc(OCc3ccccc3)cc2)oc1NCc1cccnc1,inactive
17,CCCCCOCC1CC(C/C(C)=N/NC(N)=S)C(=O)O1 (centres undefined),"inconclusive: 35.5 µM [inhibitor, single point]"
18,COc1ccc(-n2nnnc2C2CCN(S(=O)(=O)c3cc(Cl)ccc3OC)CC2)cc1,inactive
19,CCn1c(=O)c2sccc2n2c(CCCC(=O)Nc3ccc(C)cc3)nnc12,inactive
20,C/C(CC(=O)Nc1ccc(C)c(Cl)c1)=N\NC(=O)c1ccccn1,inactive
21,CC(NC(=O)c1cccc(Nc2nc3ccccc3n3nnnc23)c1)c1ccccc1 (centres undefined),"inconclusive: 6.31 µM [inhibitor, single point]"
22,CCNc1nc(NC(C)C)nc(N(C#N)C(C)C(=O)N(C)C)n1 (centres undefined),"inconclusive: 35.5 µM [activator, single point]"
23,O=C(O)c1ccc(-n2nnc3ccccc32)c([N+](=O)[O-])c1,inactive
24,Cc1cc(O)c(C(c2ccc(F)cc2)N2CCN(c3ccccc3)CC2)c(=O)n1Cc1ccco1 (centres undefined),inactive
25,C=CCNC(=O)c1ccc(CNS(=O)(=O)c2ccc(NC(C)=O)cc2)cc1,"inconclusive: 29.1 µM [activator, single point]"

row,SMILES,Potency
1,COc1cccc(/C=N/NC(=O)N/N=C/c2cccc(OC)c2O)c1O,"inconclusive: 3.98 µM [inhibitor, partial curve]"
2,COc1ccc(/C=C/c2noc(-c3ccccc3OC(C)=O)n2)cc1,"inconclusive: 28.2 µM [inhibitor, single point]"
3,COc1ccccc1/C=C/CN1CCC(Oc2ccc(C(=O)N3CCCCC3)cc2)CC1,inactive
4,Cc1cccc(COCC(Cc2ccccc2)N2CCN(C(=O)c3cccc(C)c3)CCC2=O)c1 (centres undefined),active: 7.31 µM
5,O=C(Nc1nnc(-c2ccccc2)o1)NC1CCCCC1,inactive
6,COc1cccc(Nc2nc(-c3cccs3)nc3ccccc23)c1,"inconclusive: 31.6 µM [inhibitor, single point]"
7,O=C(CCc1nnc(CCCCc2ccccc2)o1)NC1CCCC1,inactive
8,COc1cc(SC)ccc1C(=O)NCCN1CCOCC1,inactive
9,Cc1nn2c(NCCCN3CCOCC3)c3c(nc2c1-c1ccccc1)CCC3,inactive
10,CC(C)(C)c1cc(C(=O)Nc2ccccc2)ccn1,"inconclusive: 29.1 µM [inhibitor, single point]"
11,NC(=S)N/N=C/c1ccc2c(c1)OCCO2,"inconclusive: 35.5 µM [inhibitor, single point]"
12,N#CC1=C(N)NC(SCc2ccc(Cl)cc2)=C(C#N)C12CCCCC2,"inconclusive: 35.5 µM [inhibitor, single point]"
13,COc1ccc(CCN2CC(O)=C(c3nc(C)cs3)C2=N)cc1OC,inactive
14,COc1cccc(CNC(=O)c2ccc3oc(=O)n(Cc4ccccc4)c3c2)c1,"inconclusive: 15.8 µM [inhibitor, single point]"
15,COc1ccccc1Nc1ncc2c(n1)CCN(CC(C)C)C2,"inconclusive: 0.316 µM [activator, full curve, poor fit]"
16,O=S(=O)(c1ccccc1)c1cccc(S(=O)(=O)N2CCCCC2)c1,"inconclusive: 29.1 µM [inhibitor, single point]"
17,Cc1nc(N2CCN(C(=O)c3ccco3)CC2)c2c3c(sc2n1)CCC3,"inconclusive: 31.6 µM [inhibitor, single point]"
18,COc1ccc(-c2nc(NC(=O)C3CC(=O)N(c4ccc5c(c4)OCCO5)C3)sc2C)cc1 (centres undefined),"inconclusive: 7.94 µM [inhibitor, partial curve, poor fit]"
19,COc1ccccc1NS(=O)(=O)c1ccc2oc(SCc3ccc(C#N)cc3)nc2c1,"inconclusive: 28.2 µM [inhibitor, single point]"
20,CCN1CCC(N(C)C2CCCCC2)CC1,"inconclusive: 8.91 µM [inhibitor, partial curve]"
21,CC(C)CC1C(C#N)=C(N)Oc2n[nH]c(-c3ccccc3)c21 (centres undefined),inactive
22,Cc1cccc(-n2nnc(-c3nc(-c4cccs4)no3)c2N)c1C,inactive
23,O=C(Nc1nc2cc3c(cc2s1)OCO3)c1ccco1,"inconclusive: 4.47 µM [inhibitor, partial curve, poor fit]"
24,Nc1c(C(=O)NCc2ccco2)sc2nc(N3CCOCC3)c3c(c12)CCCC3,inactive

# Copied from the list:
# `COc1cc(SC)ccc1C(=O)NCCN1CCOCC1` | Potency: inactive
# `NC(=S)N/N=C/c1ccc2c(c1)OCCO2` | Potency: inconclusive: 35.5 µM [inhibitor, single point]
# `COc1cccc(CNC(=O)c2ccc3oc(=O)n(Cc4ccccc4)c3c2)c1` | Potency: inconclusive: 15.8 µM [inhibitor, single point]
# `O=C(CCc1nnc(CCCCc2ccccc2)o1)NC1CCCC1` | Potency: inactive
# `CCN1CCC(N(C)C2CCCCC2)CC1` | Potency: inconclusive: 8.91 µM [inhibitor, partial curve]
# `COc1ccccc1NS(=O)(=O)c1ccc2oc(SCc3ccc(C#N)cc3)nc2c1` | Potency: inconclusive: 28.2 µM [inhibitor, single point]
# `O=C(Nc1nc2cc3c(cc2s1)OCO3)c1ccco1` | Potency: inconclusive: 4.47 µM [inhibitor, partial curve, poor fit]
